Experimental data published in PubChem BioAssay AID1259354 (Paczesny and Yang Labs, IUPUI and University of Michigan, 2018).
Values joined by “and” are separate entries in the source; they are usually repeats but may differ in a detail not shown here. Identical values can stand only once. Screen size: about 78,000 compounds; about 1,800 (2.3%) were called active. Inconclusive results, whose numbers are uncertain, are shown with a selection of clear calls. Cut-off read from the data, not from the text of the source: active = inhibition above about 30%; inconclusive = mostly about 10% to 28%; inactive = weaker than that.

The chains behind the UniProt entries cited, without tags or fusion partners. Where a name states a change or a piece, a line headed by the entry shows the natural chain unless it says otherwise.
UniProt Q01638: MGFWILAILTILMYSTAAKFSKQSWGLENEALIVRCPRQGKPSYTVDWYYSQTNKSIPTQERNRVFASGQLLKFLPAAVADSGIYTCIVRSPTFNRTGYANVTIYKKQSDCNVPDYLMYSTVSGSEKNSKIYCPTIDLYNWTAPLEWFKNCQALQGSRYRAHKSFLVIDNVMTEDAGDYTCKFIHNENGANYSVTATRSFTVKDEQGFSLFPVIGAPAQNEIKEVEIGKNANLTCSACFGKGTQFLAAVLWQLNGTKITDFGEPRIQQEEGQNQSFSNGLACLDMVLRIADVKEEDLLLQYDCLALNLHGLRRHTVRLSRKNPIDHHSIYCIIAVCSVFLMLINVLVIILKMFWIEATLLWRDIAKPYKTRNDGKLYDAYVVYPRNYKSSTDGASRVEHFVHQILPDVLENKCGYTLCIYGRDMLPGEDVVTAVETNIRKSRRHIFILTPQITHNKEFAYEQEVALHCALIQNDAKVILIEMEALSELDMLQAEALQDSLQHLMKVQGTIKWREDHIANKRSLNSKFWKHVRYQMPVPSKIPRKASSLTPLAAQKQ

Biological target: Interleukin-1 receptor-like 1 (Homo sapiens) (UniProt Q01638)
Assay: blocks human ST2 binding to IL-33, primary screen, biochemical, AlphaLISA (AID 1259354)
Conditions: AlphaLISA ST2-Fc/biotin-IL-33 interaction, 1 h; at 17 µM, active compounds read high

Row | SMILES | inhibition
1 | CC1(C)CC(=O)C2=C(C1)Nc1nc(SCc3ccccc3F)nn1C2c1ccc(O)cc1 (stereo not given) | inconclusive: 10%
2 | Cc1nn(C)cc1C(C)NC1CCN(c2ccc(C(=O)NC3CCCC3)cc2)CC1 (stereo not given) | inconclusive: 13%
3 | O=S(=O)(c1ccc2c(c1)OCCO2)N1CCC(n2cnc3cccnc32)CC1 | active: 98%
4 | COc1cc(/C=C2/SC(=Nc3ccccc3)NC2=O)cc(Cl)c1O | active: 42%
5 | CCc1ccc(N(CC(=O)NCC2CCCO2)S(C)(=O)=O)cc1 (stereo not given) | inconclusive: 10%
6 | CC(=O)OC(C(=O)N(C)c1nnc(-c2ccc(C)cc2)s1)c1ccccc1 (stereo not given) | inactive
7 | CN(C)CCN(C)[C@H]1[C@@H]2OC[C@@H](O2)[C@@H](NCc2ccncc2)[C@@H]1O | inconclusive: 13%
8 | CC(C)=CCC/C(C)=C/CO[C@@H]1O[C@H](CO[C@@H]2O[C@@H](CO)[C@H](O)[C@H]2O)[C@@H](O)[C@H](O)[C@H]1O | inconclusive: 16%
9 | Cc1ncc2c(c1-c1noc(CCCC(=O)c3ccccc3)n1)CCNC2 | inactive
10 | Cc1ccc(C2CC(c3ccc(C(C)C)cc3)n3nc(N)nc3N2)cc1 (stereo not given) | inconclusive: 13%
11 | N#Cc1c(-n2ncnc2-c2ccccc2)sc2c1CCCC2 | active: 31%
12 | CCOC(=O)C1(CCc2ccccc2)CCN(C(=O)c2cc(OC)ccc2OC)CC1 | inconclusive: 11%
13 | O=C1S/C(=C\c2ccccc2)C(=O)N1c1cccc(O)c1 | inconclusive: 16%
14 | CCN1/C(=C2\C(=O)N(c3ccc(Cl)cc3)N=C2C)C=Cc2ccccc21 | inactive
15 | Cc1ccc2cc(C3CC(c4ccco4)=NN3C(=O)CCC(=O)O)c(Cl)nc2c1 (stereo not given) | inconclusive: 11%
16 | O=C(Cn1nc(-c2ccccc2)ccc1=O)NC1CCCCCCC1 | inconclusive: 10%
17 | CCOc1ccc(/C=C2/SC(=O)N(c3ccccc3)C2=O)cc1 | inconclusive: 11%
18 | Cc1ccc2c(c1)N(C(C)C(=O)O)C(=O)CO2 (stereo not given) | inconclusive: 10%
19 | CCCNC(=O)c1sc2c(Cl)c(OC)ccc2c1Cl | active: 53%
20 | Cc1cc(C)c(C#N)c(SCc2ccccn2)n1 | inactive
21 | CC(Oc1ccccc1)C(=O)N1CCN(c2ccc([N+](=O)[O-])cc2)CC1 (stereo not given) | active: 48%
22 | COc1ccc(C(Nc2ccccn2)c2ccc3cccnc3c2O)cc1OC (stereo not given) | inconclusive: 18%
23 | Cc1oc(-c2cccs2)nc1CN1CCOc2ccc(Cl)cc2C1 | inconclusive: 13%

Row | SMILES | inhibition
24 | C=C(C)c1ccccc1NC(=O)CN1C(=O)c2ccccc2S1(=O)=O | inactive
25 | Cc1ccc(NC(=O)CCNC(=O)c2ccc(-n3cnnc3)cc2)cc1 | inactive
26 | CN(C)C(=O)CNC(=O)C1CCCCC1 | inconclusive: 15%
27 | CCC(C)N(Cc1ccncc1)C(=O)c1cccc(-c2noc(C)n2)c1 (stereo not given) | inactive
28 | CCC(C)N(Cc1ccncc1)Cc1ccc(NC(C)=O)cc1 (stereo not given) | inconclusive: 13%
29 | O=C(O)c1ccc(N2C(=O)c3nccnc3C2=O)cc1 | inactive
30 | O=[N+]([O-])c1ccccc1S(=O)(=O)Nc1ccc(OCc2ccccc2)cc1 | inconclusive: 16%
31 | C=C(C)[C@@H]1CC[C@]2(C(=O)O)CC[C@]3(C)C(CCC4[C@]5(C)C(CC[C@]43C)C(C)(C)[C@@H](O)[C@@H]5C(=O)O)C12 (stereo not given in full) | inconclusive: 14%
32 | COc1ccc(CNC(=O)c2ccc3c(c2)ncn3C2CCCC2)c(OC)c1 | inactive
33 | COc1ccc(NC(=O)N[C@H]2[C@H](O)[C@@H](N3CCN(C)CC3)[C@@H]3OC[C@H]2O3)cc1 | inconclusive: 19%
34 | c1coc(C2Oc3ccccc3C3CC(c4cccs4)=NN32)c1 (stereo not given) | inconclusive: 26%
35 | COc1ccc(C(=O)Nc2nnc(C(C)(C)C)s2)cc1[N+](=O)[O-] | inactive
36 | C=C(C)C1Cc2c(cc(O)c3c2OC2C(O)Oc4cc(OC)c(OC)cc4C2C3=O)O1 (stereo not given) | inactive
37 | Cc1cc(C(=O)N2CCCC2C(=O)Nc2ccc(-c3cccc(F)c3)cc2)no1 (stereo not given) | inconclusive: 11%
38 | Cn1c(=NC(=O)c2ccc(S(=O)(=O)N3CCOCC3)cc2)sc2c3ccccc3ccc21 | inactive
39 | COc1cccc(-n2cc(CN(C)Cc3ccsc3)cn2)c1 | inconclusive: 19%
40 | O=C(NCCC1=CCCCC1)C1CCC(=O)N(Cc2ccccn2)C1 (stereo not given) | inactive
41 | CCC(=O)N1CCN(c2cc(N3CCCCCC3)c(F)cc2[N+](=O)[O-])CC1 | inconclusive: 14%
42 | COCCN1CCCC(O)(CN2CCN(c3cc(C)nc4ncnn34)CC2)C1=O (stereo not given) | inconclusive: 17%
43 | CCCCc1nc(SCC(=O)NC2CCCCC2)n[nH]1 | inconclusive: 11%
44 | O=S(=O)(Nc1ccccc1I)c1ccc(F)cc1 | inactive
45 | Cc1nn(CCCC(=O)Nc2sc3c(c2C#N)CCC(C(C)(C)C)C3)c(C)c1[N+](=O)[O-] (stereo not given) | inconclusive: 11%
46 | Cc1nnsc1CN(C)Cc1cccc(C(=O)Nc2c(C)noc2C)c1 | inconclusive: 12%

Row | SMILES | inhibition
47 | O=C(NCc1nccs1)c1nn(CC2CC2)c2c1CN(C(=O)CC1=CCCCC1)CC2 | inconclusive: 10%
48 | O=C(CCS(=O)(=O)c1cccc2nsnc12)Nc1ccc2c(c1)OCCO2 | inconclusive: 16%
49 | CC(C)C[C@H](N)CSSC[C@@H](N)CC(C)C | inactive
50 | Cc1cc(C)nc(NS(=O)(=O)c2ccc(NS(=O)(=O)c3ccc(F)cc3)cc2)n1 | inactive
51 | CCCC(=O)N1c2ccccc2-c2nnc(SC)nc2OC1c1ccccn1 (stereo not given) | inactive
52 | Cc1cc(NC(=O)c2c(-c3ccccc3)noc2C)ccc1Br | inactive
53 | CC(C)(CC(=O)O)CC(=O)N[C@H]1CO[C@H]2[C@@H]1OC[C@@H]2Nc1nccc(-c2ccco2)n1 | inactive
54 | COC(=O)[C@@H]1Cc2ncn(Cc3ccc(Cl)cc3)c2CN1S(=O)(=O)c1ccc(NC(C)=O)cc1 | inconclusive: 23%
55 | O=[N+]([O-])c1nn(-c2ccccc2)n(O)c1=NC1CCCCC1 | inconclusive: 16%
56 | COc1ccc(-c2noc([C@@H]3C[C@H](NC(=O)Nc4cccc(F)c4)CN3C)n2)cc1 | inconclusive: 20%
57 | O=C(Nc1cccc(Cl)c1)Nc1nc2ccccc2[nH]1 | inconclusive: 19%
58 | COc1cc2c(cc1OC)C(C(=O)Nc1ccccn1)C(c1cccs1)N(C)C2=O (stereo not given) | inactive
59 | c1ccc2c(CN3CCC[C@H]3c3nc(-c4ccc(-c5ccncc5)nc4)no3)c[nH]c2c1 | inconclusive: 16%
60 | CCCS(=O)(=O)N1CCCC(C(=O)NCCCN2CCCCC2CC)C1 (stereo not given) | inconclusive: 15%
61 | CC(C)(C)CC(=O)N1CC[C@@H](CC(=O)O)[C@@H](CCN2CCC(n3c(=O)[nH]c4ccccc43)CC2)C1 | inconclusive: 11%
62 | CN(Cc1nc(-c2ccccc2)cs1)C1CCc2c(c(C(=O)N3CCSCC3)nn2C)C1 (stereo not given) | inconclusive: 19%
63 | COc1ccc2cc3cc(C(=O)Nc4ccc(F)cc4F)sc3nc2c1 | active: 35%
64 | COc1cc2oc(=O)ccc2cc1C(O)C(OC(=O)C=C(C)C)C(C)(C)O (stereo not given) | inconclusive: 12%
65 | COC(=O)c1ccccc1NC(=O)NCCc1nc2cccnc2n1Cc1ccc(C)cc1 | inconclusive: 29%
66 | COc1ccc(C2CC(C(F)(F)F)n3nc(C(=O)N4C(C)CCCC4C)c(Cl)c3N2)cc1 (stereo not given) | inactive
67 | CCC(C)OC(=O)C1=C(C)NC2=C(C(=O)C(C(=O)OC)C(C)C2)C1c1cccc(OC)c1 (stereo not given) | inconclusive: 14%
68 | CCOC(=O)c1cnn(-c2ccccc2)c1NC(=O)c1cccs1 | inactive
69 | CC(C)CN1C(=O)COC[C@@H]1[C@H](O)c1ccc(NC(=O)C2CCC2)cc1 | inconclusive: 19%

Row | SMILES | inhibition
70 | CCCCOC(=O)C1=C(C)Nc2nnnn2C1c1c(F)cccc1Cl (stereo not given) | inactive
71 | Cc1ccc(NC(=O)c2cc3c(=O)n4ccccc4nc3s2)cc1C | inconclusive: 22%
72 | CC1(C)CC(=O)C2=C(C1)N(Cc1ccco1)C1=C(C(=O)c3ccccc31)C2c1ccc(F)cc1 (stereo not given) | inconclusive: 15%
73 | COc1ccc(C(=O)Nc2ccc(Nc3nc(C)cc(N(C)C)n3)cc2)cc1OC | inconclusive: 24%
74 | CC1=Nc2c(ccc3cccnc23)C1(C)C | active: 36%
75 | COc1ccc(-c2csc(=Nc3ccccc3)n2C)cc1 | active: 59% and active: 52%
76 | O=C(NCc1cccnc1)c1cc(-c2ccc(Br)s2)nc2ccccc12 | inconclusive: 23%
77 | CCCc1[nH]n(-c2nc3ccccc3s2)c(=O)c1C(C)=Nc1cc(Cl)ccc1O | inconclusive: 14%
78 | CC(C)NC(=O)C[C@@H]1O[C@H](Cn2cc(COc3ccccc3)nn2)[C@@H](O)[C@H]1O | inactive
79 | Cc1[nH]cnc1C(=O)N1CC(N2CCCCC2C)C1 (stereo not given) | inconclusive: 10%
80 | CN1CCCN(Cc2cccc(Oc3ccccc3)c2)CC1 | inactive
81 | C=C1[C@@]23C(=O)O[C@H](C)[C@]24O[C@@]2(C(=C)[C@]5(CCC(=O)OC5(C)C)C[C@H](OC(=O)/C(C)=C/C)[C@]32C)[C@H](OC(C)=O)[C@@]1(C)OC4=O | inconclusive: 12%
82 | Cn1ccnc1-c1nccn1-c1ccc2c(c1)CCC2 | inactive
83 | CCN(C(=O)CCS(=O)(=O)c1cccc2nsnc12)c1ccccc1 | inactive
84 | O=C1CC(c2cccc(F)c2)c2cc3c(cc2N1)OCCO3 (stereo not given) | inactive
85 | CC1=C(C(=O)Nc2ccc(Br)cn2)C(c2ccsc2)C2=C(CCCC2=O)N1 (stereo not given) | inactive
86 | CC1CCN(c2nc3c([nH]2)c(=O)n(C)c(=O)n3C)CC1 | inconclusive: 11%
87 | Cc1ccccc1CCN1CCCC(CN(C)C(=O)/C=C/c2nc3ccccc3s2)C1 (stereo not given) | inconclusive: 11%
88 | COc1cc(/C=C/c2ccc3cccc(O)c3n2)c(Br)cc1O | inconclusive: 22%
89 | COc1ncccc1C(=O)Nc1cnc2n1CCCC2 | inactive
90 | Cc1ccc(C2=N/C(=C\c3ccc(N(C)C)cc3)C(=O)O2)cc1[N+](=O)[O-] | active: 30%
